This passage reports binding results from paper PMC7664998.

No constants are given. Whether binding was seen depends on the method and setting. Binding seen in cells or lysates may run through a third protein.

This test has as its target dCIZ1:3Xflag (Drosophila). The test can be described thus: co-IP; anti-FLAG M2 magnetic beads; S2 cells transfected with dCIZ1:3Xflag, lysed in TBS with 1% Triton X-100 and 1 mM PMSF; western blot. In general terms: A western blot detects proteins with antibodies after separation by electrophoresis.

B1: Drice (enzyme, UniProt O01382 1-339)
chain: MDATNNGESADQVGIRVGNPEQPNDHTDALGSVGSGGAGSSGLVAGSSHPYGSGAIGQLANGYSSPSSSYRKNVAKMVTDRHAAEYNMRHKNRGMALIFNHEHFEVPTLKSRAGTNVDCENLTRVLKQLDFEVTVYKDCRYKDILRTIEYAASQNHSDSDCILVAILSHGEMGYIYAKDTQYKLDNIWSFFTANHCPSLAGKPKLFFIQACQGDRLDGGVTMQRSQTETDGDSSMSYKIPVHADFLIAYSTVPGFYSWRNTTRGSWFMQSLCAELAANGKRLDILTLLTFVCQRVAVDFESCTPDTPEMHQQKQIPCITTMLTRILRFSDKQLAPAGRV
B1: the binding result was “no binding”.
